# Source: PMC5415203
# Protein sequences, listed by entry. Tags and fused reporters are not part of them.
# UniProt Q92878: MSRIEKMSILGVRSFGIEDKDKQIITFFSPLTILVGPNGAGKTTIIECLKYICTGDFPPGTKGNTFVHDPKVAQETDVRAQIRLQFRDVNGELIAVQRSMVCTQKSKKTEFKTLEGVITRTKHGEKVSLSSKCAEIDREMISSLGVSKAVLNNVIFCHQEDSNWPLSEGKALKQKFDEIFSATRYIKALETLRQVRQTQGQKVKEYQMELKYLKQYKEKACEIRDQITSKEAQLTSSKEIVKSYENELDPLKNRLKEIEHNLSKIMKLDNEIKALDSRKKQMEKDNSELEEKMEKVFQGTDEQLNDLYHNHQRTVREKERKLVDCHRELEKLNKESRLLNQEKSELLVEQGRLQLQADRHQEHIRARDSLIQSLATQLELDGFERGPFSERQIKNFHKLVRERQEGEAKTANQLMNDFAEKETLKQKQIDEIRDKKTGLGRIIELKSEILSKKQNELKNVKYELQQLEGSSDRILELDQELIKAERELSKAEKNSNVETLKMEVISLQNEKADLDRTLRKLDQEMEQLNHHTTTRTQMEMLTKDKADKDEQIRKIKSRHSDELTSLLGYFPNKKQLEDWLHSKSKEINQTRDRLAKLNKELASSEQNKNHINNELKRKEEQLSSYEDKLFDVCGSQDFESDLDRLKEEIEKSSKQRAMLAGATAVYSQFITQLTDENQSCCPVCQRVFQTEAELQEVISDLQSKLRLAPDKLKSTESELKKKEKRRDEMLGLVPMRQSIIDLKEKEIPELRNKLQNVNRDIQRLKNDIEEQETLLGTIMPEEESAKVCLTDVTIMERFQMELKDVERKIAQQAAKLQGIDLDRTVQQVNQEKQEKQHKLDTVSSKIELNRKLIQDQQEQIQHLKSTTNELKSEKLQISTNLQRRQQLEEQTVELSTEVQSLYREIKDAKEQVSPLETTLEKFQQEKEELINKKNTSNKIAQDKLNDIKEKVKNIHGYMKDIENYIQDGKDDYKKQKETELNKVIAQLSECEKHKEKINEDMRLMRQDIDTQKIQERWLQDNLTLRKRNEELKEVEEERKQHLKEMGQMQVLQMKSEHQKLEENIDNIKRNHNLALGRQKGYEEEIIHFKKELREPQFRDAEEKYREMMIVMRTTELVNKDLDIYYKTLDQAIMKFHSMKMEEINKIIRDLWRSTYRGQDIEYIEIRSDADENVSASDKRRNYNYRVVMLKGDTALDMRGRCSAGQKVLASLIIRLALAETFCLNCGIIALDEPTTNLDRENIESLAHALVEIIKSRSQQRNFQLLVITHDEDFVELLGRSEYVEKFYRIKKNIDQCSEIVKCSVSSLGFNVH
# UniProt Q9QR71: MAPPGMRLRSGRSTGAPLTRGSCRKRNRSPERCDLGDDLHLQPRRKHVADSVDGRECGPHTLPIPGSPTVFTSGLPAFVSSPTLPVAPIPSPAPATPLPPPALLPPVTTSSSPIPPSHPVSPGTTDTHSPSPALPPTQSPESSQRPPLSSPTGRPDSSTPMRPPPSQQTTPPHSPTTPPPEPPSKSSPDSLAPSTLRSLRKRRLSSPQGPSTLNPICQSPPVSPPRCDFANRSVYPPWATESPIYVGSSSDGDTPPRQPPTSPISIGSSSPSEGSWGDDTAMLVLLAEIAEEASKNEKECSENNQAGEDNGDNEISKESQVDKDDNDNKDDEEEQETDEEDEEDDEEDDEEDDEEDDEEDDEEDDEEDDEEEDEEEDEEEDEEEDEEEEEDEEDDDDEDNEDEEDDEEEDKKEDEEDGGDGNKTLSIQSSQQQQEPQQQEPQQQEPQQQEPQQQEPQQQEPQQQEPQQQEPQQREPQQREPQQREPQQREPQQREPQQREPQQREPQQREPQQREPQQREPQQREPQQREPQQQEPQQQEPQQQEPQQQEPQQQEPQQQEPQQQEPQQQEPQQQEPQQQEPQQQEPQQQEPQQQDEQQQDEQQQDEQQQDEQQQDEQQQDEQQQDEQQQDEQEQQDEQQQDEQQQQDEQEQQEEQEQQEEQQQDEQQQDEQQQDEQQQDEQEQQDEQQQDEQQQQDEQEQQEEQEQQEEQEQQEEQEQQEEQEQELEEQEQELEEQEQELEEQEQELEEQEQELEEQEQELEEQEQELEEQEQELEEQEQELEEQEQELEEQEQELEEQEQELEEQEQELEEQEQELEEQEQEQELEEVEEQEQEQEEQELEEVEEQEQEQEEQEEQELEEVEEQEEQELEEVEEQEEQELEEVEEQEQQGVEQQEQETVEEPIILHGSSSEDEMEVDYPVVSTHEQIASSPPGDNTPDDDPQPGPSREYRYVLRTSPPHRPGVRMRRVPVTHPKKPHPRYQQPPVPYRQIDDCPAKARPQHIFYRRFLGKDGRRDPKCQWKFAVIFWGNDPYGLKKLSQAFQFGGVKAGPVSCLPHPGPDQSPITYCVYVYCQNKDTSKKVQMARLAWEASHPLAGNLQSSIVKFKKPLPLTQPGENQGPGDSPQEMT
# UniProt O60934: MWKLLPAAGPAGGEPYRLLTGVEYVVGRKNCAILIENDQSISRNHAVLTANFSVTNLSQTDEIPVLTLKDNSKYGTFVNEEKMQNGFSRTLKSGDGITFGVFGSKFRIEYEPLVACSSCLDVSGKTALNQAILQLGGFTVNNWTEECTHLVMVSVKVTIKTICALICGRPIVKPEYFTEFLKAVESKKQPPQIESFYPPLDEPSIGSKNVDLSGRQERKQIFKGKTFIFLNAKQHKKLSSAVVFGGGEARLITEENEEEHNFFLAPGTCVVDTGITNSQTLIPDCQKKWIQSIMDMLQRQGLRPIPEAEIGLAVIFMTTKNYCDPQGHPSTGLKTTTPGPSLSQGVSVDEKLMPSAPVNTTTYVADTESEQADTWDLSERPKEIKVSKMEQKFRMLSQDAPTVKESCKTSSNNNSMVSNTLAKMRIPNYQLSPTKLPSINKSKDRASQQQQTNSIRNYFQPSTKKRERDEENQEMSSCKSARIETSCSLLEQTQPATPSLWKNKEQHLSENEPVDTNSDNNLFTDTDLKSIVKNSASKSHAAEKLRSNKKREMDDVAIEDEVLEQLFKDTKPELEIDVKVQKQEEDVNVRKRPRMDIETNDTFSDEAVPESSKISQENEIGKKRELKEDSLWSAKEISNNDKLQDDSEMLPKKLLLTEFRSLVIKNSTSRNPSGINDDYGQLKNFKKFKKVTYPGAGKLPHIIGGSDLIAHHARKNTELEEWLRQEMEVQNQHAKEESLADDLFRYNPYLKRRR
# Results are given in words; binding and its absence hold for the method and conditions named. In cells and extracts the contact can be indirect. Some entries that bind do so weakly or less than the wild type.
# B1: CARD9, endogenous (protein, UniProt Q9H257 1-536)
# chain: MSDYENDDECWSVLEGFRVTLTSVIDPSRITPYLRQCKVLNPDDEEQVLSDPNLVIRKRKVGVLLDILQRTGHKGYVAFLESLELYYPQLYKKVTGKEPARVFSMIIDASGESGLTQLLMTEVMKLQKKVQDLTALLSSKDDFIKELRVKDSLLRKHQERVQRLKEECEAGSRELKRCKEENYDLAMRLAHQSEEKGAALMRNRDLQLEIDQLKHSLMKAEDDCKVERKHTLKLRHAMEQRPSQELLWELQQEKALLQARVQELEASVQEGKLDRSSPYIQVLEEDWRQALRDHQEQANTIFSLRKDLRQGEARRLRCMEEKEMFELQCLALRKDSKMYKDRIEAILLQMEEVAIERDQAIATREELHAQHARGLQEKDALRKQVRELGEKADELQLQVFQCEAQLLAVEGRLRRQQLETLVLSSDLEDGSPRRSQELSLPQDLEDTQLSDKGCLAGGGSPKQPFAALHQEQVLRNPHDAGLSSGEPPEKERRRLKESFENYRRKRALRKMQKGWRQGEEDRENTTGSDNTDTEGS
# Assays:
# [1] = molecular target: Rad50, endogenous (human (endogenous in BC3, BCBL-1, BrK.219, TrK.219, HEK293, HEK293T)) (UniProt Q92878); assay: co-IP; endogenous proteins; whole cell lysates of BC3, BCBL-1 and BrK.219 cells in TBS-T buffer, treated with benzonase; overnight with anti-Rad50-antibody-coupled beads or IgG-control beads; immunoblot for LANA
# [2] = molecular target: KSHV Latency-Associated Nuclear Antigen (LANA), endogenous in KSHV-infected cells (Kaposi Sarcoma Herpesvirus (KSHV, HHV-8)) (UniProt Q9QR71); assay: co-IP; endogenous proteins; whole cell lysates of KSHV-infected cells (BC3, BCBL-1, BrK.219, TrK.219) in TBS-T buffer, treated with benzonase; overnight with anti-LANA-antibody-coupled sepharose beads or IgG-control beads; immunoblot
# [3] = molecular target: KSHV Latency-Associated Nuclear Antigen (LANA), endogenous in KSHV-infected cells (Kaposi Sarcoma Herpesvirus (KSHV, HHV-8)) (UniProt Q9QR71); assay: co-IP; endogenous proteins; cytoplasmic extract of BCBL-1 cells (NE-PER kit); overnight with LANA-antibody or IgG-control beads; immunoblot
# [4] = molecular target: KSHV Latency-Associated Nuclear Antigen (LANA), endogenous in KSHV-infected cells (Kaposi Sarcoma Herpesvirus (KSHV, HHV-8)) (UniProt Q9QR71); assay: co-IP; endogenous proteins; whole cell lysates of KSHV-infected cells (BC3, BCBL-1, BrK.219, TrK.219) in TBS-T buffer, treated with benzonase; overnight with anti-LANA-antibody-coupled sepharose beads or IgG-control beads; immunoblot; remark: listed apart in the source
molecule,measurement,setting,value
"KSHV Latency-Associated Nuclear Antigen (LANA), endogenous in KSHV-infected cells (from UniProt Q9QR71 1-1129)",binding,[1],binds
"NBS1, endogenous (from UniProt O60934 1-754)",binding,[2],binds
"Rad50, endogenous (from UniProt Q92878 1-1312)",binding,[3],binds
same,binding,[2],binds
B1,binding,[4],binds
